The exact form of at least one protein or probe is not confirmed.
System: His-NbARF19 DBD (Nicotiana benthamiana)
Assay: EMSA
Details: EMSA: protein dialyzed in 1x PBS, incubated with labeled probe 20 min at room temperature, agarose gel, Odyssey DLx imaging, binding buffer, recombinant protein, protein details: His (pET28a)

Sequence | binding result (excess unlabeled probe competes) | binding result (unlabeled probe competes)
AATCAAAACGAGAGAAACAGAGAGCCGACATAGTCTTAACCACCGGTGAA (double strand) [NbGSL8 promoter probe (M2 AuxRE)] | binds | –
CCAGACACAAACTTGTGGCCAGATAAGATGTTGACACCAGATATGAACCTGTTGTCGGA (double strand) [NbYUC8 promoter probe (AuxRE)] | – | binds

Source: PMC12710714
